Data taken from ChEMBL document CHEMBL3988442, “University of Dundee, Small-Polar-MMV Screening Library” (2021).

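Whole-cell growth test on Mycobacterium tuberculosis, read after 3 days in glucose-containing 7H9 medium; the read-out is not stated. Concentration: 500 µM. The record gives no direction; compounds that gave an IC50 in retests scored well above the rest, so higher reads as more growth inhibition. Of about 18,000 compounds tested this way, about 1,400 (7.9%) reached 50% or more in at least one test.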

Results are given as percent effect. How 0% and 100% were set is not recorded. Most values in the screen are low, and negative values occur. This is an unselected part of the compounds tested.

| compound | effect |
|---|---|
| `CN(C)C(=O)NCCNc1nc(-c2ccccc2)ns1` | -6.601 |
| `COCc1noc(CCNC(=O)c2cccn2C)n1` | 5.032 |
| `OCCCC(Nc1ccccn1)c1ccccc1` (stereo not shown) | 57.95 |
| `COc1ccnc(N(CCS(C)(=O)=O)C2CC2)n1` | 5.427 |
| `CSCCOC(=O)c1ccc2nncn2c1` | 18.22 |
| `Cc1ccc(C)c(OCC(=O)NCC[S+](C)[O-])c1` (stereo not shown) | 13.75 |
| `Cc1ccc(C)c(OCC(O)CN2CCOCC2)c1` (stereo not shown) | 27.95 |
| `COC(=O)c1sc(N)c(C#N)c1C` | 21.34 |
| `CN(C)CCCNCC(O)COc1ccccc1` (stereo not shown) | 10.98 |
| `CC(C)(CNC(=O)c1nccnc1N)N1CCOCC1` | 11.77 |
| `CN(C)c1ccc(CNC(=O)NC2CC2)cn1` | -4.647 |
| `O=C1CN(CC2CCNC2)CCN1` (stereo not shown) | 0.8873 |
| `CC(C)c1ccsc1C(=O)NCCCC(N)=O` | 5.807 |
| `CCOCC(=O)NCC1(O)CCCc2ccccc21` (stereo not shown) | 59.88 |
| `O=C1CN(CCOc2ccc3ccccc3c2)CCN1` | 32.45 |
| `O=C(CC1C(=O)Nc2ncnn21)Nc1ccccc1F` (stereo not shown) | -11 |
| `CC(C)c1nnsc1CNC(=O)CCc1csc(N)n1` | 1.827 |
| `CCN1CCN(CCC(=O)Nc2ccccc2C)CC1` | 15.31 |
| `COc1ccc(C(CN)CO)cc1` (stereo not shown) | 22.73 |
| `CN(C)C(=O)CN1CCCCCCC1` | -10.96 |
| `O=C(c1cnsn1)N1CCSCC1c1ccccc1` (stereo not shown) | 10.12 |
| `Cc1nnc(SCC(=O)NCCCc2csc(N)n2)s1` | 26.26 |
| `CC(C)n1ccc(CN2C(=O)CC(C)(C)C2=O)n1` | -1.812 |
| `COc1ccc(CN)c(F)c1` | 1.324 |
| `c1coc(C2CCCCN2)c1` (stereo not shown) | 28.43 |
| `CC(O)CCN(C)Cc1cscn1` (stereo not shown) | 13.85 |
| `CCNC(=O)[C@@H]1C[C@H](N)CN1c1nc(C)ncc1CC` | 5.842 |
| `Cc1nn(C)c(N(C)C)c1CNCCc1cnn(C)c1` | -6.803 |
| `CCNC(=O)CNc1cc(C)c(Cl)cc1OC` | 56.67 |
| `CCC(CNC(=O)Nc1cc(C)nn1C)N1CCCC1` (stereo not shown) | 9.673 |
| `N#CCCCS(=O)(=O)NC1(CN)CCCC1` | -1.227 |
| `C[C@@H]1CN(C(=O)c2cccc3cc[nH]c23)CCN1` | 31.61 |
| `Cc1noc(NC(=O)C(C)OCC2CC2)n1` (stereo not shown) | 2.429 |
| `CC(O)CN1CCN(CCC(=O)N2CCCCC2)CC1` (stereo not shown) | 0.7052 |
| `NCCCNC(=O)c1ccccc1OC(F)(F)C(F)F` | 45.49 |
| `NC(=O)C1CCCCN1CC(=O)Nc1cccc(F)c1` (stereo not shown) | 11.76 |
| `CC(CNC(=O)c1cccc(OC(F)F)c1)N(C)C` (stereo not shown) | -3.379 |
| `CCCN1CCC(NC(=O)C(C)C)CC1` | 4.994 |
| `COCC(C)(NC(=O)c1ccc(Br)cc1Cl)C(N)=O` (stereo not shown) | 29.12 |
| `COCCN(C)C(=O)Nc1cccc(C)n1` | 11.84 |
| `Nc1ccnc(C2CCNCC2)n1` | -1.163 |
| `Cc1ccc(Br)c(C(=O)NC2CCS(=O)(=O)CC2)c1` | -0.3053 |
| `CC(C)(CC(N)=O)NCc1ccc(F)c(C#N)c1` | 7.046 |
| `Clc1cnccc1CN1CCC2(CC1)OCCO2` | 35.64 |
| `Cc1noc(C)c1S(=O)(=O)NCCCN1CCCC1=O` | 14.84 |
| `O=C(Cn1cnnn1)Nc1ccc(N2CCCC2)nc1` | -5.873 |
| `Cc1cc(C)n(CC(=O)N(C)CC2(C)CCOCC2)n1` | 14.55 |
| `CC(C)COCC(O)CNC(=O)C1(C#N)CCCC1` (stereo not shown) | 21.58 |
| `CC(=O)NC1CCNC1` (stereo not shown) | -4.389 |
| `COCCSc1nncn1CCc1ccccn1` | 1.907 |
| `C1CNC[C@@H](CN2CCOCC2)C1` | 0.4659 |
| `COc1cccn(CC(=O)N2CCCCCCC2)c1=O` | -7.517 |
| `CN1CCC(NC(=O)C2=NN(C)C(=O)CC2)C1` (stereo not shown) | 5.707 |
| `CN(CC=Cc1ccc(F)cc1)CC(N)=O` | 30.52 |
| `COCC(O)CN(C)C(=O)c1cc(C)cc(F)c1` (stereo not shown) | 8.693 |
| `CCNc1ccnc(C(=O)NCc2ccccc2)c1` | 59.08 |
| `CCCN1CCC(NC(=O)c2ccc(O)cn2)C1` (stereo not shown) | 11.73 |
| `O=C(NC1=NCCS1)c1cccnc1OCC(F)(F)F` | 10.88 |
| `O=C(Cn1ccc(=O)[nH]c1=O)Nc1cccnc1` | -4.442 |
| `O=C1CN(C(=O)c2cc3cccc(Br)c3o2)CCN1` | 6.077 |
| `COc1cccnc1CN` | 22.79 |
| `CN(CCc1ccccn1)CC(=O)NC1CC1` | 6.204 |
| `CC(C)(NCCCO)c1nccs1` | 9.904 |
| `N#Cc1ccc(Br)o1` | -0.9518 |
| `CN(Cc1cccc(F)c1)C(=O)c1cnccn1` | 49.67 |
| `Cc1ccccc1C1(O)CCNC1` (stereo not shown) | -13.62 |
| `CN(C)C(=O)CNC(CO)c1ccc(Cl)c(F)c1` (stereo not shown) | 7.867 |
| `CC(=O)NC1CNc2ccccc2C1` (stereo not shown) | -3.056 |
| `FC(F)Oc1cccc(N2CCNCC2)c1` | 66.41 |

Repeated from the top, 7 entries:

Result for CN(C)C(=O)NCCNc1nc(-c2ccccc2)ns1 was -6.601%.
Result for COCc1noc(CCNC(=O)c2cccn2C)n1 was 5.032%.
Result for OCCCC(Nc1ccccn1)c1ccccc1 (stereo not shown) was 57.95%.
Result for COc1ccnc(N(CCS(C)(=O)=O)C2CC2)n1 was 5.427%.
Result for CSCCOC(=O)c1ccc2nncn2c1 was 18.22%.
Result for Cc1ccc(C)c(OCC(=O)NCC[S+](C)[O-])c1 (stereo not shown) was 13.75%.
Result for Cc1ccc(C)c(OCC(O)CN2CCOCC2)c1 (stereo not shown) was 27.95%.